Measured values published in patent US20230094083A1 (YEDA RESEARCH AND DEVELOPMENT, published 2023).
Residue numbers refer to the chain shown, from its start. These are yes or no findings as the source states them, for the method shown. Some results given as binding are weak or reduced against the parent protein; the word gives no strength.

By UniProt entry, the sequences of proteins in these tests, tags left out. Residues count along the entry.
UniProt P08113, residues 22-802: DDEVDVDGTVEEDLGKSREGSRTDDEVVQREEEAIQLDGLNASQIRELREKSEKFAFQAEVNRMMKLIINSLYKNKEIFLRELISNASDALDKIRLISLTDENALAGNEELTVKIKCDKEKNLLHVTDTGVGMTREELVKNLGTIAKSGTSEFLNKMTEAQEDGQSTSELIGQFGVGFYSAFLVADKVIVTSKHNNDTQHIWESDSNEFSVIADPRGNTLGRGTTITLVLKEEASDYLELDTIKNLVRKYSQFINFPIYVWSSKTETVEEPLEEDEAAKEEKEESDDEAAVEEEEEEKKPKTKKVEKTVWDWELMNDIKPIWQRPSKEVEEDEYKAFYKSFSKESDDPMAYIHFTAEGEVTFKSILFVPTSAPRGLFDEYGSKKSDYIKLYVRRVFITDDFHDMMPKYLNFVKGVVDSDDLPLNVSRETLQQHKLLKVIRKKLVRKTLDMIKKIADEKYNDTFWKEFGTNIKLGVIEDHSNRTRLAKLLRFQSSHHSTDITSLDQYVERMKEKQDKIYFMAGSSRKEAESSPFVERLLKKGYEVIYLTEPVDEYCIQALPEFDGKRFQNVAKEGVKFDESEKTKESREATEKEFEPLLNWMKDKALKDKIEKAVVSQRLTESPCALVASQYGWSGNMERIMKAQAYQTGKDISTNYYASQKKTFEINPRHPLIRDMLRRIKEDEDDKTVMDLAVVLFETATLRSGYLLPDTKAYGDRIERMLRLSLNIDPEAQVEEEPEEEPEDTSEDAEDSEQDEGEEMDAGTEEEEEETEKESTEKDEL
UniProt P14625, residues 22-803: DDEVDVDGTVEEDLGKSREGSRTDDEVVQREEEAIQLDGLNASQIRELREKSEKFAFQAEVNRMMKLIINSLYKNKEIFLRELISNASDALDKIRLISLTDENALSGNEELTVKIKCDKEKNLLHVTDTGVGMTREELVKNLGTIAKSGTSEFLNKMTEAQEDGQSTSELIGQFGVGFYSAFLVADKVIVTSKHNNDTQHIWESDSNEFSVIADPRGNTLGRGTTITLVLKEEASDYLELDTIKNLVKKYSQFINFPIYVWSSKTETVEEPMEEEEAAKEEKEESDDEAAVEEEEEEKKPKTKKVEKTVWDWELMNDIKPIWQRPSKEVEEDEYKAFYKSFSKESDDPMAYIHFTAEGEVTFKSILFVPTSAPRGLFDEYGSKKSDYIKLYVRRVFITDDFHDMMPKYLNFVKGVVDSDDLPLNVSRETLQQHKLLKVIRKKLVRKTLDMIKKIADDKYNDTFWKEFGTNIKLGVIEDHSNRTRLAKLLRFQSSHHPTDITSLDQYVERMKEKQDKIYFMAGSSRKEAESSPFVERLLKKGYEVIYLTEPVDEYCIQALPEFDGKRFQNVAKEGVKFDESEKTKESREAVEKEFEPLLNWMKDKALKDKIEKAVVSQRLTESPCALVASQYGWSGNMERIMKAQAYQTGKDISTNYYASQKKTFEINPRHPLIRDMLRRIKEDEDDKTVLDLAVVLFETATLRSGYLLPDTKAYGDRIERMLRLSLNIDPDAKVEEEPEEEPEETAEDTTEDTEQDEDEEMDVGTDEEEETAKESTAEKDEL

Assays:
[1] = molecular target: mouse Grp94 on the cell surface (Meth A sarcoma cells; senescent primary mouse lung fibroblasts) (mouse) (UniProt P08113); assay: flow cytometry, hybridoma supernatant on senescent primary mouse fibroblasts
[2] = molecular target: mouse Grp94 on the cell surface (Meth A sarcoma cells; senescent primary mouse lung fibroblasts) (mouse) (UniProt P08113); assay: flow cytometry on senescent primary mouse fibroblasts, hybridoma supernatant; growing cells for comparison
[3] = molecular target: mouse Grp94 on the cell surface (Meth A sarcoma cells; senescent primary mouse lung fibroblasts) (mouse) (UniProt P08113); assay: flow cytometry on Meth A sarcoma cells (FIG. 2)
[4] = molecular target: mouse Grp94 on the cell surface (Meth A sarcoma cells; senescent primary mouse lung fibroblasts) (mouse) (UniProt P08113); assay: flow cytometry on Meth A sarcoma cells, hybridoma supernatant neat and 1 in 2, AF647 goat anti-mouse IgG secondary
[5] = molecular target: recombinant human Grp94 (Creative Biomart, USA) (human) (UniProt P14625); assay: Biacore T200 single cycle kinetics, antibody captured on an anti-mouse surface, Grp94 as analyte at 11.1 to 100 nM
[6] = molecular target: mouse Grp94 on the cell surface (Meth A sarcoma cells; senescent primary mouse lung fibroblasts) (mouse) (UniProt P08113); assay: flow cytometry on senescent and growing primary mouse fibroblasts
[7] = molecular target: recombinant human Grp94 (Creative Biomart, USA) (human) (UniProt P14625); assay: Biacore T200 epitope binning on amine-coupled rhGrp94
[8] = molecular target: recombinant human Grp94 (Creative Biomart, USA) (human) (UniProt P14625); assay: hybridoma screening
[9] = molecular target: recombinant human Grp94 (Creative Biomart, USA) (human) (UniProt P14625); assay: Biacore T200 epitope binning on amine-coupled rhGrp94; Biacore T200 epitope binning
[10] = molecular target: recombinant human Grp94 (Creative Biomart, USA) (human) (UniProt P14625); assay: hybridoma screening; hybridoma screening for human Grp94 binding

Measured: binding

B1: anti-Grp94 monoclonal antibody clone 4C2 (antibody, V domains shown)
VH: EVQLVETGGGLVQPKGSLKLSCAASGFTFNTNAMNWVRQAPGKGLEWVARIRSKSNNYATYYADSVKDRFTISRDDSQSMLFLQMNNLKTEDTAMYYCVRDTLAWFAYWGQGTLVTVSA
VL: QIVLTQSPAIMSASPGEKVTITCSASSSVSYMHWFQQKPDTSPKLWIYSTSNLASGVPARFSASGSGTSYSLTISRMEAEDAATYYCQQKTSYPPTFGAGTKLELK
notes: Mouse hybridoma antibody; It was tested as hybridoma supernatant in the screens (ELISA, Meth A FACS, Biacore, binning); also called 4C2 clone hybridoma supernatant; monoclonal antibody 4C2
binds: [1] | [2] | [3] | [4] | [5] | [6] | [7]

B2: anti-Grp94 monoclonal antibody clone 5B2 (antibody, mouse IgG2a, V domains shown)
VH: B1 VH with S79N, L81F, F82Y, L103A, A104T
VL: B1 VL with I10L, T22A, D40G, A63G, A99S, L105I
notes: Mouse hybridoma antibody, tested as hybridoma supernatant
binds: [5] | [8] | [7]

B3: anti-Grp94 monoclonal antibody clone 9A3 (antibody, mouse IgG2a, V domains shown)
VH: EVKLVESGGGLVKPGGSLKLSCAASGFTFRTYAMSWVRQTPEKRLEWVATITTGGPTYYPDNVKGRFTISRDNDRNILDLQMNSLRSEDTATYYCLRGATTGDYWGQGTTLIVSS
VL: DIVMTQSHKFMFTSVGDRVSITCKASHDVSTAVAWYQQKPGQYPKLLIYWASNRYTGVPDRFTGSGSGMDFTFTISSVQAEDLAVYYCQQHSSTPYTFGGGTRLEIK
notes: as for B2
binds: [9] | [10]

B4: anti-Grp94 monoclonal antibody clone 20H2 (antibody, V domains shown)
VH: B1 VH with K15Q, Y58F, A59V, K67T, F82Y, N87S, E91G, L103A, A104T, A107S
VL: B1 VL with K18R, Y31F, D40G, A63G, K90R, S92N, A99S, L105I
binds: [8] | [7]
